{"sequences": {"note": "Sequences of proteins named here, by UniProt entry; tags and fusion partners are left off.", "UniProt Q9VMJ7": "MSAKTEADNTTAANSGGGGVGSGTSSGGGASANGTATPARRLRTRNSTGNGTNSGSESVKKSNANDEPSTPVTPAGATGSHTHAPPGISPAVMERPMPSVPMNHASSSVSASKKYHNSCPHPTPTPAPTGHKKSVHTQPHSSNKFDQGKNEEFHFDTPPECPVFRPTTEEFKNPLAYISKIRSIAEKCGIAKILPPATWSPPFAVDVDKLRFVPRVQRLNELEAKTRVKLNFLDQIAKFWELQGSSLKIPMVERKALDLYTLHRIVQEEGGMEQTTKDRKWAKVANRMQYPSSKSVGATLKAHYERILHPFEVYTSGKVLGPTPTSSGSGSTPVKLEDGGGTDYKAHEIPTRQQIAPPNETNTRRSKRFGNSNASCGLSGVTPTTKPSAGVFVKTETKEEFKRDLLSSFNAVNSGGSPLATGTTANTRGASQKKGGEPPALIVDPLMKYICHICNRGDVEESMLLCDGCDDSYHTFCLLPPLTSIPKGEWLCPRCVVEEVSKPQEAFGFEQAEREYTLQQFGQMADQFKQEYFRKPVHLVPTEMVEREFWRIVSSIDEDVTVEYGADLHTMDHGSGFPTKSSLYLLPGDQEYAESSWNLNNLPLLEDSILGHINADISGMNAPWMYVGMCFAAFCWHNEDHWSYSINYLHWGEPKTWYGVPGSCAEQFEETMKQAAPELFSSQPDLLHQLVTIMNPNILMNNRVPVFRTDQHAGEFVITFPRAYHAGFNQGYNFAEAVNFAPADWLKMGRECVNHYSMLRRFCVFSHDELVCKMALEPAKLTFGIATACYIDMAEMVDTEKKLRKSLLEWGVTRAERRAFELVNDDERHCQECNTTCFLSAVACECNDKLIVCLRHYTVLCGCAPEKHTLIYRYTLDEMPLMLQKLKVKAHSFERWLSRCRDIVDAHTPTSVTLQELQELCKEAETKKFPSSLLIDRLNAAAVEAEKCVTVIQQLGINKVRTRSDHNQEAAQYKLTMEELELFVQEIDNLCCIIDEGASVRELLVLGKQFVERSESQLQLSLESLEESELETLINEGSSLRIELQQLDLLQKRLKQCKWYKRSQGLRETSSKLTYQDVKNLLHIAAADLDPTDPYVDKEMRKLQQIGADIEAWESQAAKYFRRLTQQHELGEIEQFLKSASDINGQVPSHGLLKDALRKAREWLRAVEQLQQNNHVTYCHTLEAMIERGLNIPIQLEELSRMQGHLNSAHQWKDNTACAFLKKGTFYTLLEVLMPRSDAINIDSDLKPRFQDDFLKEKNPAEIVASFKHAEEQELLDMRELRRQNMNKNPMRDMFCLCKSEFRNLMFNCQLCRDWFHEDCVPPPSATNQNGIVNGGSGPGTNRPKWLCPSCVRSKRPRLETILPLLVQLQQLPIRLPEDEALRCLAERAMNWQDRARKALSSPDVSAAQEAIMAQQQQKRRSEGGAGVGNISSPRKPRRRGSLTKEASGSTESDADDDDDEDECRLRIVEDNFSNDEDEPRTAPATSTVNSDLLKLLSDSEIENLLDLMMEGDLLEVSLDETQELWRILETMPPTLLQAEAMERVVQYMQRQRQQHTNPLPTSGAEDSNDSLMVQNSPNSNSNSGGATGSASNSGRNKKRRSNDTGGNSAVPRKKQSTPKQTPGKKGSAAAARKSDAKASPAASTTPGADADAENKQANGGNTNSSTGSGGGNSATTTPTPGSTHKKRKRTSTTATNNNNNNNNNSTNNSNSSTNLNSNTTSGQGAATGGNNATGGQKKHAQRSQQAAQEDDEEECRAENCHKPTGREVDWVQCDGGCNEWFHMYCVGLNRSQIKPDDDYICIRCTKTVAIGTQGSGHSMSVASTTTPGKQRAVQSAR", "UniProt Q94517": "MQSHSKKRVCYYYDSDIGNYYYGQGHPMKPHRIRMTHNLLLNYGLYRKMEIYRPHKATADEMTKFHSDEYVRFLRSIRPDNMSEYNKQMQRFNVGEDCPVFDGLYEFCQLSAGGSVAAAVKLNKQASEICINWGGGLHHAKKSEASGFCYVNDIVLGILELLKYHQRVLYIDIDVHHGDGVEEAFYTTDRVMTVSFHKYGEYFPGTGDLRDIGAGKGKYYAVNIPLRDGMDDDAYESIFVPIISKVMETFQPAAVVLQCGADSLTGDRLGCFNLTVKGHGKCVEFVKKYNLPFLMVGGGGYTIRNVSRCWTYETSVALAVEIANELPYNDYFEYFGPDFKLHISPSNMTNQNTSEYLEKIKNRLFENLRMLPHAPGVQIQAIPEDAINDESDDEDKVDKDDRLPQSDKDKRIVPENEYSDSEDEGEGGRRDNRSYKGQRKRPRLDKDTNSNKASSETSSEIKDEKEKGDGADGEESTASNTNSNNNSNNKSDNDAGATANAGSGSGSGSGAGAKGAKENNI"}, "source": "paper PMC4740996", "biological_target": "FLAG-HA-tagged dKDM5/LID (Drosophila) (UniProt Q9VMJ7)", "assay": "co-IP; nuclear extracts of S2 cells expressing the HA-tagged bait, anti-HA agarose beads (clone HA-7) overnight at 4 °C in 20 mM HEPES pH 7.4, 150 mM NaCl, 0.5 mM EDTA, 1 % Triton X-100, 10 % glycerol; washes with RIPA, 500 mM and 300 mM NaCl buffers; western blot of bound fraction; untransfected S2 cells as control", "note": "Results are given in words; binding and its absence hold for the method and conditions named. Binding seen in cells or lysates may run through a third protein. Some results given as binding are weak or reduced against the parent protein; the word gives no strength.", "data": [{"substance": "RPD3 (endogenous, S2 cells) (from UniProt Q94517 1-521) (enzyme)", "values": [{"measurement": "binding", "result": "binds"}]}]}
